According to patent US20210290727A1 (UNIVERSITY OF MARYLAND BALTIMORE, published 2021):

Target: HA-GST-Rheb S20N variant (UniProt Q15382)
Experiment: co-IP from HEK293 lysates, immunoblot

binding: binds
B1: tdTomato-CIB2 (protein, not shown: large carriers)
chain: MGNKQTIFTEEQLDNYQDCTFFNKKDILKLHARFYELAPNLVPMDYRKSPIVHVPMSLIIQMPELRENPFKERIVEAFSEDGEGNLTFNDFVDMFSVLCESAPRELKANYAFKIYDFNTDNFICKEDLEMTLARLTKSELEEDEVVLVCDKVIEEADLDGDGKLGFADFEDMIAKAPDFLSTFHIRI

No constants are given. Whether binding was seen depends on the method and setting. Binding seen in cells or lysates may run through a third protein. Binding calls can cover weak binding; strength is not graded here.
